# Assay results: patent US6342360B1 (priority 1988, dated 2002)
# Some of these results come from one statement about several compounds together. At least one structure is not confirmed: it was looked up by name or label, or the drawing left a doubt.
# System: D2 dopamine receptors in rat striatal membranes
# Assay: 3H-spiperone binding to rat striatal membranes
# Details: two-site fit
smiles,measurement,value
CN1CCc2cc(Cl)c(O)cc2[C@@H](c2ccccc2)C1 [SCH 23390],share of 3H-spiperone binding inhibited with high affinity,10-20%
